# Test results as given in the supplement of paper PMC10735217.
# The other results are listed elsewhere or left out. Single values are uncertain here, since repeats match poorly.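 In a drug-repurposing library screen, luminescence reads luciferase driven by eight TEAD-binding elements, stably integrated into human kidney-derived cells. Compounds scoring over five robust Z scores above the plate mean are called hits.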
# Tested on: HEK293A TEAD-LUC reporter
# Test: TEAD-luciferase reporter activity (YAP activation), robust Z score vs plate; higher = stronger YAP/TEAD activation
# Conditions: 24 h
SMILES,TEAD-luciferase reporter activity (compound concentration: 200 nM),TEAD-luciferase reporter activity (compound concentration: 2 uM),TEAD-luciferase reporter activity (compound concentration: 10 uM)
COc1ccc(S(=O)(=O)N2c3ccc(Cl)cc3[C@](O)(c3ccccc3Cl)[C@@H]2C(=O)N2CCC[C@H]2C(N)=O)cc1OC [Relcovaptan],inactive: 0.373,inactive: -0.846,inactive: -2.4
Cc1ccccc1C(=O)Nc1ccc(C(=O)N2CCCC(O)c3cc(Cl)ccc32)c(C)c1 (stereo unspecified) [tolvaptan],inactive: -0.542,inactive: -2.7,inactive: -3.13
CCCCOC(=O)CC(c1ccccc1)N1CCCCC1 (stereo unspecified),inactive: -0.737,inactive: 0.197,inactive: 0.441
O=C(O[C@@H]1C[C@@H]2C[C@@H]3C[C@H](C1)N2CC3=O)c1c[nH]c2ccccc12,inactive: -0.236,,inactive: 1.46
O=C(O[C@@H]1C[C@@H]2C[C@@H]3C[C@H](C1)N2CC3=O)c1c[nH]c2ccccc12 [dolasetron mesilate],,inactive: -1.19,
COc1ccc(C2(c3ccccc3)NC(=O)N(CCCN3CCC(c4ccccc4)CC3)C2=O)cc1 (stereo unspecified),inactive: -0.392,inactive: -0.903,inactive: -0.448
COc1ccc(S(=O)(=O)Nc2cccnc2Nc2ccc(O)cc2)cc1,inactive: 2.44,inactive: -0.58,inactive: -0.18
CC(N)C(=O)OC(C)(C)Cc1ccc(Cl)cc1 (stereo unspecified),inactive: -2.89,inactive: -0.613,inactive: -1.35
O=C(c1ccc(F)cc1)N1CCCC(C(=O)N2CCC(N3CCCC3=O)CC2)C1 (stereo unspecified),inactive: 1.32,,inactive: 4.04
CC(C)(N)[C@H](NC(=O)c1ccc(C#CC#C[C@@H]2C[C@H]2CO)cc1)C(=O)NO,inactive: 0.308,inactive: -0.277,inactive: -0.429
CCCC(CCC)C(=O)O,inactive: 4.9,,inactive: -2.16
CCCC(CCC)C(=O)O [magnesium valproate hydrate],,inactive: -0.885,
CCOc1cc2cc(C(=O)O)sc2cc1OCC,inactive: -1.58,inactive: -0.0511,inactive: -0.58
Nc1ccc(OCCCCCN2C(=O)c3ccccc3C2=O)cc1,inactive: -0.66,inactive: 0.891,inactive: -0.594
NS(=O)(=O)c1ccc(N2CCN(CC[C@@H]3OCCc4ccccc43)CC2)cc1 [Sonepiprazole mesilate],inactive: -1.57,inactive: -0.344,inactive: 0.065
COc1nc2ccc(Br)cc2cc1[C@@H](c1ccccc1)[C@@](O)(CCN(C)C)c1cccc2ccccc12 [Bedaquiline],inactive: -0.989,inactive: -1.55,inactive: 2.44
